In paper PMC3250484, “Molecular Networks in FGF Signaling: Flotillin-1 and Cbl-Associated Protein Compete for the Binding to Fibroblast Growth Factor Receptor Substrate 2” (PLoS ONE, 2012):
Where two headings read alike, the source gives them in different places. Results are given in words; binding and its absence hold for the method and conditions named. For some of these results: Binding can be weak; no strength is given. For some of these results: Where a sequence is shown, tags or fusion partners need not be part of it. For some of these results: Binding seen in cells or lysates may run through a third protein. Values belong to the molecule of their own block, whether it stands above or below them.

Tests used:
[1] = target: T1, flotillin-2/reggie-1, two-hybrid fusion (UniProt Q9Z2S9); assay: two-hybrid; pairwise cotransformation of bait and prey in yeast AH109 (Matchmaker GAL4 Two-Hybrid System 3); growth of blue colonies on SD/-Ade/-His/-Leu/-Trp/X-α-gal plates, photographed after 3 days
T1 sequence: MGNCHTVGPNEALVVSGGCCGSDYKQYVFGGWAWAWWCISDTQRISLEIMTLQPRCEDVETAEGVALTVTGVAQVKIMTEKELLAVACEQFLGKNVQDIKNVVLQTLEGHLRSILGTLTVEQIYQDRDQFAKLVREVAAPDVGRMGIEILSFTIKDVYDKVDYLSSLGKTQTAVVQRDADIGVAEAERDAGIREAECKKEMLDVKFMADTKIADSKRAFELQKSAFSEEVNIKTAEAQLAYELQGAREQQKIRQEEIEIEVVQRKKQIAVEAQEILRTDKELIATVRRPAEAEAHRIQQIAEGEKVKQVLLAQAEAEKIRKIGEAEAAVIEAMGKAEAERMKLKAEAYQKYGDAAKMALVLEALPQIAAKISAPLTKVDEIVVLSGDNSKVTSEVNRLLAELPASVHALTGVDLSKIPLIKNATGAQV

[2] = target: T2, Full-length (FL) flotillin-1/reggie-2, two-hybrid bait in pGBKT7 (rat) (UniProt Q9Z1E1); assay: as above
T2 sequence: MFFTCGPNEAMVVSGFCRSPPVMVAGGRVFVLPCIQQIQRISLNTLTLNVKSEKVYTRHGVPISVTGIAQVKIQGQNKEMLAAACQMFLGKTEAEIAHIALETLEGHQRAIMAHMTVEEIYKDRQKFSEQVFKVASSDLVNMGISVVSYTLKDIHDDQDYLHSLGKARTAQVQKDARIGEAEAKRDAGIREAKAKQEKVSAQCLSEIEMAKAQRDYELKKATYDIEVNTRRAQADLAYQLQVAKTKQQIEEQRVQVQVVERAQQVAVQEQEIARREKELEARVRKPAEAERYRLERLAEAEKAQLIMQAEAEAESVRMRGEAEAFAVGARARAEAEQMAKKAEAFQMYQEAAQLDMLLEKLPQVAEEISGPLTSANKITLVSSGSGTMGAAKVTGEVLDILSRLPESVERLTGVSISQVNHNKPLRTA

[3] = target: Flot-1-STOP328, deletion mutant of flot-1 missing 100 amino acids from the C-terminal end (rat) (UniProt Q9Z1E1); assay: as above
FL FRS2 GST fusion = target: T3, FL FRS2 GST fusion (UniProt Q8WU20); assay: pull-down; competition: purified FRS2-GST on beads, lysates of HeLa cells transfected with increasing amounts of FGFR-myc (0.5-2 µg DNA; empty pcDNA3 as control); blot for endogenous flot-1; only the target purified
T3 sequence: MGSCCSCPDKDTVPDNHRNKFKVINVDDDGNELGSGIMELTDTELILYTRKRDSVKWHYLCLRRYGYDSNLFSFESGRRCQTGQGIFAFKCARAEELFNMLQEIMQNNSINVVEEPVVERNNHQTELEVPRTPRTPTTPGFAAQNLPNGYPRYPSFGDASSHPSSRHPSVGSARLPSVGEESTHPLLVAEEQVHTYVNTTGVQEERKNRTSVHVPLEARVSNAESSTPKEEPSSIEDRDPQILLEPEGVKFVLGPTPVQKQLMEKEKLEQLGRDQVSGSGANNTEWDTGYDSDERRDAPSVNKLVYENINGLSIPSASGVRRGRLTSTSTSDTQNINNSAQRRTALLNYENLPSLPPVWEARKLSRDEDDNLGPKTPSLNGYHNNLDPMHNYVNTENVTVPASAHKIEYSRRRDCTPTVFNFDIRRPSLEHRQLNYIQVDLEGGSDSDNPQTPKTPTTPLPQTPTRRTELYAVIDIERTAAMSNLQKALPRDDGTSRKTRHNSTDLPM

[4] = target: FL Cbl-associated protein/ponsin, two-hybrid fusion (mouse); assay: two-hybrid; pairwise cotransformation of bait and prey in yeast AH109 (Matchmaker GAL4 Two-Hybrid System 3); growth of blue colonies on SD/-Ade/-His/-Leu/-Trp/X-α-gal plates, photographed after 3 days
[5] = target: Flot-1-STOP328, deletion mutant of flot-1 missing 100 amino acids from the C-terminal end (rat) (UniProt Q9Z1E1); assay: as above; remark: listed apart in the source
[6] = target: sorbin homology (SoHo) domain of CAP, two-hybrid fusion SoHo-BD (mouse); assay: as above
[7] = target: CAP mutant lacking the SoHo domain, GST fusion (mouse); assay: pull-down; GST fusion immobilised on sepharose beads, purified FRS2-His in solution; 5 µg of the purified proteins, on ice 3 h; wash 50 mM Tris-HCl pH 7.5, 150 mM NaCl, 1 mM EDTA, 1 mM DTT, 0.01% Triton X-100; anti-His blot; both purified
[8] = target: SoHo-GST (sorbin homology domain of CAP) (mouse); assay: as above
[9] = target: third SH3 domain of CAP (SH3C), GST fusion (mouse); assay: as above
[10] = target: full length CAP-GST (mouse); assay: as above
[11] = target: first SH3 domain of CAP, GST fusion (mouse); assay: as above
[12] = target: second SH3 domain of CAP, GST fusion (mouse); assay: as above
[13] = target: FRS2 CT domain GST fusion (UniProt Q8WU20); assay: pull-down; GST-FRS2 fusions immobilised on glutathione-sepharose beads, incubated with HeLa cell lysate (50 mM Tris pH 7.4, 0.15 M NaCl, 2 mM EDTA, 1% NP-40) over night at 4°C; blot for endogenous flot-1; only the target purified
[14] = target: FRS2 PTB domain GST fusion (UniProt Q8WU20); assay: as above
[15] = target: full length CAP-GST (mouse); assay: pull-down; competition: CAP-GST on sepharose, HeLa cell lysates in the presence of increasing amounts (1-5 µg) of purified FRS2-His; blot for endogenous flot-1; only the target purified

Molecule: myc-tagged FGF receptor
binding (FL FRS2 GST fusion): binds

B1: Full-length (FL) fibroblast growth factor receptor substrate 2 in pGADT7 (protein, UniProt Q8WU20 1-508)
chain: T3 sequence
binding [4]: binds | binding [5]: no binding | binding [6]: no binding

Now from value to molecule:

binding [1]: no binding | binding [2]: binds | binding [3]: no binding
Molecule: PTB domain of FRS2 in pGADT7 (from UniProt Q8WU20) (domain or fragment)

binding [7]: binds | binding [8]: binds | binding [9]: binds | binding [10]: binds | binding [11]: no binding | binding [12]: no binding
B2: FRS2-His (protein)
chain: T3 sequence

binding [13]: binds | binding [14]: binds | binding [15]: binds
B3: endogenous flotillin-1 from HeLa cell lysates (protein, UniProt O75955 1-427)
chain: MFFTCGPNEAMVVSGFCRSPPVMVAGGRVFVLPCIQQIQRISLNTLTLNVKSEKVYTRHGVPISVTGIAQVKIQGQNKEMLAAACQMFLGKTEAEIAHIALETLEGHQRAIMAHMTVEEIYKDRQKFSEQVFKVASSDLVNMGISVVSYTLKDIHDDQDYLHSLGKARTAQVQKDARIGEAEAKRDAGIREAKAKQEKVSAQYLSEIEMAKAQRDYELKKAAYDIEVNTRRAQADLAYQLQVAKTKQQIEEQRVQVQVVERAQQVAVQEQEIARREKELEARVRKPAEAERYKLERLAEAEKSQLIMQAEAEAASVRMRGEAEAFAIGARARAEAEQMAKKAEAFQLYQEAAQLDMLLEKLPQVAEEISGPLTSANKITLVSSGSGTMGAAKVTGEVLDILTRLPESVERLTGVSISQVNHKPLRTA
